This sample is rich in variants without activity.
B1: tRNA (parent)
chain: GUUCCGUUGGCGUAAUGGUAACGCGUCUCCCUCCUAAGGAGAAGACUGCGGGUUCGAGUCCCGUACGGAACG

Variants of: B1
Test: yeast fitness relative to wild type (ratio to wild type); higher = fitter; tRNA-Arg(CCU), competitive growth, 37 C, YPD
In short: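 The tRNA-Arg(CCU) gene variants were made by chemical synthesis with a 3% per-site mutation rate at 69 sites and inserted at the native genomic locus of Saccharomyces cerevisiae. After pooling, the strains were competed in YPD at 37°C for 24 hours in six parallel replicates. Gene amplicons from the start population and each end population were read by 100-nucleotide paired-end sequencing, and Darwinian fitness relative to wild type was taken from genotype frequency changes. Genotypes needed ≥ 100 starting reads, and estimates < 0.5 were set to 0.5.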

Yeast fitness, 0.715:
GUUCCGUUGGUGUAAUGGUAACGCGUCUCCCUCCUAACGAGAAGACUGCGGGUUCGAGUCCCGUACGGAACG [C11U G38C]

Yeast fitness, 0.702:
GUUCCGUUGGUGUAAUGGUAACGCGUCUCCCUCCUAAGGAGAAGACUGCAGGUUCGAGUCCCGUACGGAUCG [C11U G50A A70U]

Yeast fitness, 0.929:
GUUCCGUUGGUGUAACGGCAACGCGUCUCCCUCCUAAGGAGAAGACUGCGGGUUCGAGUCCCGUACGGAACG [C11U U16C U19C]

Yeast fitness, 0.581:
GUUCCGUUGGUGAAAUGGUAACGCAUCACCAUCCUAAGGAGACGACUGCGGGUUCGAGUGGUGUACGGAACG [C11U U13A G25A U28A C31A A43C C60G C61G C62U]

Yeast fitness, ≤ 0.5:
GUUCCGUUGGUGUAAUGAUAACCCGUCUCCCUCUUAAGGAGAAGACUGCGGGUUCGAGACCCGUACGGACCG [C11U G18A G23C C34U U59A A70C]
GUUCCGUUGGUGUAAUGCUAAUGCGUCUCCCUCCUAAGGAGAAGACUGCGGGUUCCAGUCCCGUACGGAACG [C11U G18C C22U G56C]
GUUCCGUUGGUGUAAUGGUAACACGUCUCCCUGCUAAGGAGAAGACUGCGGGUUCGAGUCCCGUACGGCACG [C11U G23A C33G A69C]
GUUCCGUUGGUGUAAUGGUAACACGUCUCCCUCCUAAGGAGAAGACUGCGGGUUCGAGUCUCGUACGGAACG [C11U G23A C61U]
GUUCCGUUGGUGUAAUGGUAACGCAUCUCCCUCCUAAGGAGAAGACUGCGGGCUCGAGUCCCGUACGGCACG [C11U G25A U53C A69C]
GUUCCGUUGGUGUAAUGGUAACGCGUCUCCCUCCUAAGAAGAAGACUGCGGGUUGAAGUCCCGUACGGUGCG [C11U G39A C55G G56A A69U A70G]
GUUCCGUUGGUGUAAUGGUAACGCGUCUCCCUCCUAAGCAGAAGACUGCGGGUUUGAGUCCCGUACGGAACG [C11U G39C C55U]
GUUCCGUUGGUGUAAUGGUAACGCGUCUCCCUCCUAAGGAAAAGACUGCGGGUUCGAGUCGAGUACGGAACG [C11U G41A C61G C62A]
GUUCCGUUGGUGUAAUGGUAACGCGUCUCCCUCCUAAGGAGAACACUGGGGGUUCGCGUCCCGUACGGAACG [C11U G44C C49G A57C]
GUUCCGUUGGUGUAAUGGUAACGCGUCUCCCUCCUAAGGAGAAGACUACGGGUUGGUGUCCCGUACGGAACG [C11U G48A C55G A57U]
GUUCCGUUGGUGUAAUGGUAACGCGUCUCCCUCCUAAGGAGAAGACUGCAGGUUCGAGUCCUAUUCGGAACG [C11U G50A C62U G63A A65U]
GUUCCGUUGGUGUAAUGGUAACGCGUCUCCCUCCUAAGGAGAAGACUGCCGGUUCGAGUCCCCUACGGAACG [C11U G50C G63C]
GUUCCGUUGGUGUAAUGGUAACGCGUCUCCCUCCUAAGGAGAAGACUGCGGGUUCAAGUCGCGUACGGAACG [C11U G56A C61G]
GUUCCGUUGGUGAAAUGGUAACGCGUCUCCCUCUUAAGGAAAUGACUGCGGGUUCGAGUCCCGUACGGAACG [C11U U13A C34U G41A A43U]
GUUCCGUUGGUGAAAUGGUAACGCGUCUCCCUCCUAAGGAGAAGACUGCCGGUUCGAGUCCCGUACGGAACG [C11U U13A G50C]
GUUCCGUUGGUGCAAUGGUAACGAGUCUCCCUCCUAAGGAGACGACUGCCGGUUCGAGUCCCGUACGGAACG [C11U U13C C24A A43C G50C]
GUUCCGUUGGUGGAAUGGUAACGCGUCUUCCUCGUAAGGAGAAGAGUGCGGGUUCGGGUCCCGUACGGAACG [C11U U13G C29U C34G C46G A57G]
GUUCCGUUGGUGGAAUGGAAAGGCAUCUCCCUCCUAAGGAGAAGACUGCGGGUUCGAGUCCCGUACGGUACG [C11U U13G U19A C22G G25A A69U]
GUUCCGUUGGUGUAAUGGAAACGCGUCUCCCUCCUAAAGAGAAGACUGCGGGUUCGAGUGCCGUACGGAACG [C11U U19A G38A C60G]
GUUCCGUUGGUGUAAUGGCUACGCGUCUCCCUCCUAAGGAGCAGACUGCGGGUUCGAGUCCCGUCCGGUACG [C11U U19C A20U A42C A65C A69U]
GUUCCGUUGGUGUAAUGGUAACGCGUCUCCCACCUAAGGAGAGGACUGCGGGAUCGAGUCCCGUACGGAACG [C11U U32A A43G U53A]
GUUCCGUUGGUGUAAUGGUAACGCGUCUCCCCCCUAUGGAGAAGACUGCGGAUUCGAGUCCCGUAAGGAACG [C11U U32C A37U G52A C66A]
GUUCCGUUGGUGUAAUGGUAACGCGUCUCCCUCCAAAGGAGAAGACUGCGGGUUUGAGUCCCGUACGCAACG [C11U U35A C55U G68C]
GUUCCGUUGGUGUAAUGGUAACGCGUCUCCCUCCUAAGGAGAAGACUGCGGGAUCGAGUCCAGUACGGAACG [C11U U53A C62A]
GUUCCGUUGGUGUAAUGGUAACGCGUCUCCCUCCUAAGGAGAAGACUGCGGGUCCAAGUCCCGUACGGAACG [C11U U54C G56A]
GUUCCGUUGGCAUCAUGGUAACGCGUCUCCCUCCUAAGGAGAAGACUGCCGGUUCGAGUCCCGUACGGCACG [G12A A14C G50C A69C]
GUUCCGUUGGCAUGAAGGUAACGCGUCUCCCUACUAAGGAGAAGACUGCGGGUUUGAGUCCCGUACGGAACG [G12A A14G U16A C33A C55U]
GUUCCGUUGGCAUUAUGGUAACGCGUCUCCCUCCUAAGGAGAAGACUACGGGCUCGAGUCCCGUACGGAACG [G12A A14U G48A U53C]
GUUCCGUUGGCAUACUGGUAACGAGUCUCCCUCCUAAGGAGAAGACUGCGGGUUCGAGUCCCGUACGGAACG [G12A A15C C24A]
GUUCCGUUGGCAUAGUGGUAACGCGUCUCCCUCCUCAGGAGAAGACUGCGGGUUCGAGUCCCGUACGGAACG [G12A A15G A36C]

Yeast fitness, 0.614:
GUUCCGUUGGUGUAAUGGUAACGCGUCUCCCACCUAAGGAGAAGACUGCGGGUUCGAGUCCCGUACGGACCG [C11U U32A A70C]

Yeast fitness, 0.974:
GUUCCGUUGGUGUAAUGGUAACGCGUCUCCCUCCUAAGGAGAACACUGCGGGUUCGAGUCCCGUACGGAACG [C11U G44C]

Yeast fitness, 0.799:
GUUCCGUUGGUGUAAUGGUAACGCGCCUCCCUCCUAAGGAGAAGACCGCGGGUUCGAGUCCCGUACGGAACG [C11U U26C U47C]

From the RNAGym collection of RNA variant scans (doi:10.1126/science.aae0568)
